Data from the supplement of paper PMC10849652.
This is one part of the list.

Sequences of proteins named here, by UniProt entry; tags and fusion partners are left off. A change or cut given only in a name is not applied to a line headed by its entry.
UniProt Q9NUQ3: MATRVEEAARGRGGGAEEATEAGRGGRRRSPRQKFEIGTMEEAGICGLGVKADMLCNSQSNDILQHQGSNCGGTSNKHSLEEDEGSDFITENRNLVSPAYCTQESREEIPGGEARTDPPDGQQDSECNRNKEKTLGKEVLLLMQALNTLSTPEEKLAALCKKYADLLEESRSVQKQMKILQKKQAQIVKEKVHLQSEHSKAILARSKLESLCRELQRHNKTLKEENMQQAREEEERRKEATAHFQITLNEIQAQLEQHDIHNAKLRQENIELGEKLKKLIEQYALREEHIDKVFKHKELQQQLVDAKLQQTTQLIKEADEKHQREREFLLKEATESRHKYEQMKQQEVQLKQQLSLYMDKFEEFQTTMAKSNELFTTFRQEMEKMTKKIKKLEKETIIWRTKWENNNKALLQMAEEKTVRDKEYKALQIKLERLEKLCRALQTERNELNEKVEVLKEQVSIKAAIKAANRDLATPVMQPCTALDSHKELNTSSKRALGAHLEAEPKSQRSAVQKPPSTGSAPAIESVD
UniProt Q13630: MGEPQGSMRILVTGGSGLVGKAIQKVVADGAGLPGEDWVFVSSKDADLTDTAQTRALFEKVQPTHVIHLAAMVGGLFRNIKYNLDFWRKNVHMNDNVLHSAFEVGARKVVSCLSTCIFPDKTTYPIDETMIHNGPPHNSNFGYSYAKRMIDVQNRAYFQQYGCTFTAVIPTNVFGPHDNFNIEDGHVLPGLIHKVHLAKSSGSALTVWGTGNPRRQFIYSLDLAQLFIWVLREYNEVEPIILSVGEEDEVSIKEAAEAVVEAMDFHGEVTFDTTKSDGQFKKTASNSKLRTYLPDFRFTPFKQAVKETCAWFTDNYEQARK
UniProt Q16881, whole entry, looked up: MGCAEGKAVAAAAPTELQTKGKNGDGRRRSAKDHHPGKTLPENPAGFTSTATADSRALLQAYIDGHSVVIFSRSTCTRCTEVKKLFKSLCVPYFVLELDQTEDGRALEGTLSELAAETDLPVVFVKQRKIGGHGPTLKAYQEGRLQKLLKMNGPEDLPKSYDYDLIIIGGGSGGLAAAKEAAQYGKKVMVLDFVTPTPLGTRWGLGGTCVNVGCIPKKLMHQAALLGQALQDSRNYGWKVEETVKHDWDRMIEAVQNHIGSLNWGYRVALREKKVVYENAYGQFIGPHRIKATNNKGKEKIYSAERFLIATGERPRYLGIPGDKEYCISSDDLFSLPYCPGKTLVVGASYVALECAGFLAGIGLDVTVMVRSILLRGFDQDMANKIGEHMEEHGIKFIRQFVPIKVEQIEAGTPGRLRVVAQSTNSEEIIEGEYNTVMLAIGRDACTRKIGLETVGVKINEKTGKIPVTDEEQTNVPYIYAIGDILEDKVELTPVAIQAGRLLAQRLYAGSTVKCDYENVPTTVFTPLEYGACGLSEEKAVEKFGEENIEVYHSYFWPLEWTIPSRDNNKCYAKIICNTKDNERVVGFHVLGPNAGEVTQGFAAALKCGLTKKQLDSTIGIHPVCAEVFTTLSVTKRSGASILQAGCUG
UniProt O14530: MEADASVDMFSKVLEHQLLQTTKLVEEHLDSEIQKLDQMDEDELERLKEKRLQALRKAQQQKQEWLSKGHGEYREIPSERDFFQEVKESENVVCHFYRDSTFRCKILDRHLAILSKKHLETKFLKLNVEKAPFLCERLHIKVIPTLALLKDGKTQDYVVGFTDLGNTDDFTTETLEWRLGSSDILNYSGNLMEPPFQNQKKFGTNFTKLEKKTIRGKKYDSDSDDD
UniProt P04818: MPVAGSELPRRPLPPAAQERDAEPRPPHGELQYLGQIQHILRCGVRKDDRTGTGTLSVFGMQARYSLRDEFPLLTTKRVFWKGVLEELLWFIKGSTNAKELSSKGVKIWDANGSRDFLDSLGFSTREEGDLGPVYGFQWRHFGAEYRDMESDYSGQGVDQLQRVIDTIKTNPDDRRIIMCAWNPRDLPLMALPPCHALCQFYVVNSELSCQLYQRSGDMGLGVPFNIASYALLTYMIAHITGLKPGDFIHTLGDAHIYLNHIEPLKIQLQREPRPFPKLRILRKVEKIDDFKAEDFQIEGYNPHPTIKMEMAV
UniProt P0DPH7, whole entry, looked up: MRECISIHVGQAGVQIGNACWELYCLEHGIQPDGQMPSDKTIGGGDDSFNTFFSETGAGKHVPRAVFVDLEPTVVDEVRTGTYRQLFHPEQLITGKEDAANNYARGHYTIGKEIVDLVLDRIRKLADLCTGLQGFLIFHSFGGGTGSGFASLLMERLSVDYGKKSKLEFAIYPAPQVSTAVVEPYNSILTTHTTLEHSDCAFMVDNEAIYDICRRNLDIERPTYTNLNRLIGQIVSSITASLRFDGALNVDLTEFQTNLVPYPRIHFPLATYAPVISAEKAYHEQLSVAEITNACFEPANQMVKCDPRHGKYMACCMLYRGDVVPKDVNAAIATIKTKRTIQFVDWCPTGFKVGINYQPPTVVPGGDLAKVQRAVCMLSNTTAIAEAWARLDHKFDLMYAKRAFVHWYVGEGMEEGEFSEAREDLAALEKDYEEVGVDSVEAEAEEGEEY
UniProt P26368, whole entry, looked up: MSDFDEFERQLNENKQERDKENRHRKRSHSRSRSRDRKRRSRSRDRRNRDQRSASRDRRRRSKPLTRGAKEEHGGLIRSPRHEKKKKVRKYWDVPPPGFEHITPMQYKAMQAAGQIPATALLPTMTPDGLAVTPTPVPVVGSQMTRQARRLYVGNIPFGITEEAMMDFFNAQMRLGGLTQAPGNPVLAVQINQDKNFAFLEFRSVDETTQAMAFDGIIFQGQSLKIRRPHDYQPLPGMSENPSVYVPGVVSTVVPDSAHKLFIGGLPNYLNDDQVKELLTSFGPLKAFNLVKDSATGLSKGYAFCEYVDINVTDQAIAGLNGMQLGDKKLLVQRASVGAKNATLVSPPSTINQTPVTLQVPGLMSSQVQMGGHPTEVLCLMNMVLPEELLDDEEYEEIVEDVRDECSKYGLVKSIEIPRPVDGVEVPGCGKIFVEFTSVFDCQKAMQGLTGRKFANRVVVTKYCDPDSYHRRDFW
UniProt P61088: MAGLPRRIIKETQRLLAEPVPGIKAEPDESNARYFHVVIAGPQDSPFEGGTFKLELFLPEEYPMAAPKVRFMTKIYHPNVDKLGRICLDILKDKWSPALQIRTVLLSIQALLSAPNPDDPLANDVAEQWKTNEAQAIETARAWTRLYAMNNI
UniProt Q9UJT0: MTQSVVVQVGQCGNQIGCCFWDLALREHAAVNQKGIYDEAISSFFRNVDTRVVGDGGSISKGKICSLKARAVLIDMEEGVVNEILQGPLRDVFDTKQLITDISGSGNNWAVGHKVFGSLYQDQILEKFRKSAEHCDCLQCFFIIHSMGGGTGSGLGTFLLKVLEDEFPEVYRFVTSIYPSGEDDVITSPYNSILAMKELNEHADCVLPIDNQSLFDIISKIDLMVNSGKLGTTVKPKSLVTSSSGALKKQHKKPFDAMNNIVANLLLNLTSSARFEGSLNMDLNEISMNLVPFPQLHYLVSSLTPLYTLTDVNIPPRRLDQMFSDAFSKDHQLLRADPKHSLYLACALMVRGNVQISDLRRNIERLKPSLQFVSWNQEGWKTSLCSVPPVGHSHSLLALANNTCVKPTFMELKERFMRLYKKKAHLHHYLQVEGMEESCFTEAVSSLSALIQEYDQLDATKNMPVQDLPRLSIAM
UniProt Q99757: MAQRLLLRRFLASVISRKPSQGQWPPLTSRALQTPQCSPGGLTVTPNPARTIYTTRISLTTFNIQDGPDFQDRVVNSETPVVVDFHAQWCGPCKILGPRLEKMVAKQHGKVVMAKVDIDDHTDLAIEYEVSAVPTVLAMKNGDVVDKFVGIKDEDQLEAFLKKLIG
UniProt Q86TV6: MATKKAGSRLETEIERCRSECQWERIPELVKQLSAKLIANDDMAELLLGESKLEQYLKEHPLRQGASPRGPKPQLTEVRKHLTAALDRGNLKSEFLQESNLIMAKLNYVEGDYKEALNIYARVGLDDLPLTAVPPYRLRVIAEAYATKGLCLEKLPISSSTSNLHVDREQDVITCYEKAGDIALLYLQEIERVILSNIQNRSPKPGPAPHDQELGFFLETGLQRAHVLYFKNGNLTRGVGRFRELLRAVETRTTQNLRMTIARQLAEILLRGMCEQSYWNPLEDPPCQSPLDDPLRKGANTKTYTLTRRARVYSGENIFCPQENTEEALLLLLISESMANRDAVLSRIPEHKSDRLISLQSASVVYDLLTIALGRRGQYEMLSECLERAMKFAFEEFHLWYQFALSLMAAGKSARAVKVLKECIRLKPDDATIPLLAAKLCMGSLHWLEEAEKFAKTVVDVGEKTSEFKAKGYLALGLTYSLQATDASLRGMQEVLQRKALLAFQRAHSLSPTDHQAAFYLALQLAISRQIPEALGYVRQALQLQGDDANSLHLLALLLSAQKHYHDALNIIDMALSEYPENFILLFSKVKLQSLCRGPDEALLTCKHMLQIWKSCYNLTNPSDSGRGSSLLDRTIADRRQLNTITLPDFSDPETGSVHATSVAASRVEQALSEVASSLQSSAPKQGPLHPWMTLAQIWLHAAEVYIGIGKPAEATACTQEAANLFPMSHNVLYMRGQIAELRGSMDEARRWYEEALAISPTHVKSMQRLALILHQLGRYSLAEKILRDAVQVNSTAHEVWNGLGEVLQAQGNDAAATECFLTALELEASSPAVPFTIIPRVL
UniProt Q6PKC3: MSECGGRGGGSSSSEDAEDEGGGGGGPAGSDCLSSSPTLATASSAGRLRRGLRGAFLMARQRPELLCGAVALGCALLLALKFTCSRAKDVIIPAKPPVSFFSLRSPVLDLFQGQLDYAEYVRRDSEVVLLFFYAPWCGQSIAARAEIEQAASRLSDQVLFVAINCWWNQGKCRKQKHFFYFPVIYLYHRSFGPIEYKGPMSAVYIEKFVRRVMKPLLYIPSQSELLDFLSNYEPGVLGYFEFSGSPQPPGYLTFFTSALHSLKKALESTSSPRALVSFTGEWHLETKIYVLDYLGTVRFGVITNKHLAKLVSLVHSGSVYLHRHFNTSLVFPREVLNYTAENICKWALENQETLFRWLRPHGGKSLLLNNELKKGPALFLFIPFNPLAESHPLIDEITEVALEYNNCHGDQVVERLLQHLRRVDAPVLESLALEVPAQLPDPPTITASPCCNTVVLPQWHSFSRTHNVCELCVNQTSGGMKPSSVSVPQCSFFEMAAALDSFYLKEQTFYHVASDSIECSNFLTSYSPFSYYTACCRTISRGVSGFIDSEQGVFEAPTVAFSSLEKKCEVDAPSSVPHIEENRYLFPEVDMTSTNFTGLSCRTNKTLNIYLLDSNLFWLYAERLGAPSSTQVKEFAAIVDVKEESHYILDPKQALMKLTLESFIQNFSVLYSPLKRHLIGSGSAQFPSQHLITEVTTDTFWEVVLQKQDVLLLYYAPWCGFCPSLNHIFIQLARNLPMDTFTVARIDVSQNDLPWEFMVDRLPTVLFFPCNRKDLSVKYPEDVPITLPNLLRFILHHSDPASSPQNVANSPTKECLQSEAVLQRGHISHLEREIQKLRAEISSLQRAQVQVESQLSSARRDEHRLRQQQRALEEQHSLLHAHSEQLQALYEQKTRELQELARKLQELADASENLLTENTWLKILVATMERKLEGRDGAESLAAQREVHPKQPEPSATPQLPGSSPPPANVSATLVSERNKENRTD
UniProt Q9GZX9: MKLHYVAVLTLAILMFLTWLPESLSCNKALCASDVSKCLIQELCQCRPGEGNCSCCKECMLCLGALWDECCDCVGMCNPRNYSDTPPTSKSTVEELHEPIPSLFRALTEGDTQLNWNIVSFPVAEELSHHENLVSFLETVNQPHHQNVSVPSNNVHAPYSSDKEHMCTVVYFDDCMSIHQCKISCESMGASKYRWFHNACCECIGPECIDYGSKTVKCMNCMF
UniProt Q9NZ09: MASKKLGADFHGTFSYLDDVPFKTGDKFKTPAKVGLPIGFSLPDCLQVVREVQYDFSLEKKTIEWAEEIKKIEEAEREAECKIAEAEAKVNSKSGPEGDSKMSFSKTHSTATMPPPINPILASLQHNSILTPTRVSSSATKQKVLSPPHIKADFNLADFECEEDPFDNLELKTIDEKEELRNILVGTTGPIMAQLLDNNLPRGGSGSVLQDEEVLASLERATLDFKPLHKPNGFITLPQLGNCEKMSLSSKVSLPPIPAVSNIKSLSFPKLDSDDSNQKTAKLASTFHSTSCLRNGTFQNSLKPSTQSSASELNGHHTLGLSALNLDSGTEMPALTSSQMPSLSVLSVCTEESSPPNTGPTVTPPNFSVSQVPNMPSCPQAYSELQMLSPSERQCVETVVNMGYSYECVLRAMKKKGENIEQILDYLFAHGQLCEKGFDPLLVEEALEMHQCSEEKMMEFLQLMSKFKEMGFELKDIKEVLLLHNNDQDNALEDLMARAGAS
UniProt Q6PID6, whole entry, looked up: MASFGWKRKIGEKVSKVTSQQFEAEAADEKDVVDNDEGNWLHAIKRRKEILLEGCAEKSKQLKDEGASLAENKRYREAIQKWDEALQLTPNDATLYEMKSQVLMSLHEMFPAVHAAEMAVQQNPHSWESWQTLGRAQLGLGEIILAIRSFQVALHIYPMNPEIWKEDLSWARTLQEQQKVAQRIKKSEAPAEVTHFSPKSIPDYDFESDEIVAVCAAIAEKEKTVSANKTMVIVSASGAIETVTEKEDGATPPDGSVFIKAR

Experiments:
Test in all cases: log2 fold change, soluble protein after heating vs DMSO (PISA); higher = thermal stabilisation; K562 cells, 10 uM, 30 min; active = over 0.2 and 3.5 SD of the protein, either way, in both replicates (recomputed)
[1] = compound: COC1=CC=C(C=C1)CN2C=CC3=C2C=C(C=C3)C(=O)NO
Outline: (§1)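 K562 cells at 2×10^6 cells/mL were treated with 10 μM compound for 30 min. Aliquots were heated for 3 min across 48°C-58°C, pooled, and extracted in PBS with 0.5% NP-40 at 4°C; soluble protein was the supernatant after 21,000xg for 90 min. Soluble protein was quantified by TMTpro 16plex LC-MS/MS with channel sums equalised, and reported as log2 fold change in thermal stability against DMSO controls, with values from duplicates.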

filanesib = compound: CON(C)C(=O)N1N=C(c2cc(F)ccc2F)S[C@@]1(CCCN)c1ccccc1 [filanesib]
Outline: as §1

zotarolimus = compound: CO[C@H]1C[C@@H]2CC[C@@H](C)[C@@](O)(O2)C(=O)C(=O)N2CCCC[C@H]2C(=O)O[C@H]([C@H](C)C[C@@H]2CC[C@H](n3cnnn3)[C@H](OC)C2)CC(=O)[C@H](C)/C=C(\C)[C@@H](O)[C@@H](OC)C(=O)[C@H](C)C[C@H](C)/C=C/C=C/C=C/1C [zotarolimus]
Outline: as §1

idasanutlin = compound: COc1cc(C(=O)O)ccc1NC(=O)[C@@H]1N[C@@H](CC(C)(C)C)[C@](C#N)(c2ccc(Cl)cc2F)[C@H]1c1cccc(Cl)c1F [idasanutlin]
Outline: as §1

[2] = compound: COc1cc2nc(-c3cc(F)ccc3O)nc(N[C@@H]3CNC[C@H]3C(C)(C)O)c2cc1OC
Outline: as §1

gefitinib = compound: COc1cc2ncnc(Nc3ccc(F)c(Cl)c3)c2cc1OCCCN1CCOCC1 [gefitinib]
Outline: as §1

lapatinib = compound: CS(=O)(=O)CCNCc1ccc(-c2ccc3ncnc(Nc4ccc(OCc5cccc(F)c5)c(Cl)c4)c3c2)o1 [lapatinib]
Outline: as §1

pictilisib = compound: CS(=O)(=O)N1CCN(Cc2cc3nc(-c4cccc5[nH]ncc45)nc(N4CCOCC4)c3s2)CC1 [pictilisib]
Outline: as §1

alisertib = compound: COc1cc(Nc2ncc3c(n2)-c2ccc(Cl)cc2C(c2c(F)cccc2OC)=NC3)ccc1C(=O)O [alisertib]
Outline: as §1

[3] = compound: COc1cccc2cc(-c3nc([C@H]4CC[C@H](C(=O)O)CC4)n4ncnc(N)c34)[nH]c12
Outline: as §1

Measured: log2 fold change

TUBB2B (UniProt Q9BVA1)
inactive: [1] -0.055 | filanesib -0.005 | zotarolimus 0.015 | idasanutlin 0.045 | [2] 0.115 | gefitinib 0.025 | lapatinib -0.013 | pictilisib -0.157

UBE2B (UniProt P63146)
inactive: [1] -0.087 | filanesib -0.113 | zotarolimus 0.038 | idasanutlin -0.059 | alisertib -0.074 | [2] 0.057 | gefitinib -0.034 | [3] 0.034 | lapatinib 0 | pictilisib -0.055

TXLNG (UniProt Q9NUQ3)
inactive: [1] -0.005 | filanesib -0.094 | zotarolimus -0.021 | idasanutlin -0.033 | alisertib -0.024 | [2] 0.004 | gefitinib 0.029 | [3] 0.006 | lapatinib 0.009 | pictilisib -0.012

TSTA3 (UniProt Q13630)
inactive: [1] -0.011 | filanesib -0.028 | zotarolimus -0.004 | idasanutlin -0.037 | alisertib -0.015 | [2] -0.01 | gefitinib -0.002 | [3] 0.004 | lapatinib -0.029 | pictilisib 0.022

UBE2D3 isoform 3 (UniProt P61077)
inactive: [1] 0.006 | filanesib -0.068 | zotarolimus 0.093 | idasanutlin -0.14 | alisertib -0.075 | [2] 0.03 | gefitinib -0.035 | [3] 0.034 | lapatinib -0.022 | pictilisib -0.079

TSPO (UniProt P30536)
inactive: [1] -0.089 | filanesib -0.009 | zotarolimus -0.002 | idasanutlin 0.014 | alisertib 0.028 | [2] 0.019 | gefitinib -0.01 | [3] 0.045 | lapatinib -0.059 | pictilisib 0.009

TXNRD1 (UniProt Q16881)
inactive: [1] 0.018 | filanesib -0.101 | zotarolimus 0.006 | idasanutlin -0.144 | alisertib -0.012 | [2] -0.023 | gefitinib 0.026 | [3] 0.052 | lapatinib -0.055 | pictilisib 0.062

TXNDC9 (UniProt O14530)
inactive: [1] -0.015 | filanesib -0.045 | zotarolimus 0.044 | idasanutlin -0.018 | alisertib 0.059 | [2] -0.03 | gefitinib -0.015 | [3] 0 | lapatinib 0.027 | pictilisib 0.044

TYMS (UniProt P04818)
inactive: [1] 0.051 | filanesib 0.032 | zotarolimus 0.079 | idasanutlin -0.024 | alisertib -0.078 | [2] 0.059 | gefitinib 0.052 | [3] -0.04 | lapatinib -0.038 | pictilisib -0.088

Two records drawn at random from the list so far:
UBE2D3 isoform 3 (UniProt P61077)
inactive: [1] 0.006 | filanesib -0.068 | zotarolimus 0.093 | idasanutlin -0.14 | alisertib -0.075 | [2] 0.03 | gefitinib -0.035 | [3] 0.034 | lapatinib -0.022 | pictilisib -0.079

TXNRD1 (UniProt Q16881)
inactive: [1] 0.018 | filanesib -0.101 | zotarolimus 0.006 | idasanutlin -0.144 | alisertib -0.012 | [2] -0.023 | gefitinib 0.026 | [3] 0.052 | lapatinib -0.055 | pictilisib 0.062

(cont.)

TTC27 (UniProt Q6P3X3)
inactive: [1] -0.008 | filanesib 0.164 | zotarolimus 0.077 | idasanutlin 0.049 | alisertib -0.1 | [2] -0.015 | gefitinib 0.048 | [3] -0.212 | lapatinib 0.01 | pictilisib -0.045

TSFM (UniProt P43897)
inactive: [1] 0.152 | filanesib -0.146 | zotarolimus 0.042 | idasanutlin 0.039 | alisertib 0.047 | [2] 0.12 | gefitinib 0.117 | [3] -0.002 | lapatinib -0.006 | pictilisib 0.066

TUBA3C (UniProt P0DPH7)
inactive: [1] -0.029 | filanesib -0.068 | zotarolimus 0.008 | idasanutlin -0.047 | alisertib -0.018 | [2] 0.007 | gefitinib -0.046 | [3] 0.07 | lapatinib 0.051 | pictilisib 0.087

TUBG1 (UniProt P23258)
inactive: [1] -0.017 | filanesib 0.045 | zotarolimus -0.013 | idasanutlin -0.006 | alisertib -0.042 | [2] 0 | gefitinib 0.049 | [3] 0.029 | lapatinib 0.017 | pictilisib -0.008

U2AF2 (UniProt P26368)
inactive: [1] 0.038 | filanesib 0.071 | zotarolimus 0.018 | idasanutlin 0.042 | alisertib -0.089 | [2] 0.014 | gefitinib 0.028 | [3] 0.074 | lapatinib -0.013 | pictilisib 0.013

UBE2N (UniProt P61088)
inactive: [1] 0.102 | filanesib -0.064 | zotarolimus 0.114 | idasanutlin 0.045 | alisertib 0.046 | [2] 0.013 | gefitinib -0.002 | [3] -0.046 | lapatinib -0.037 | pictilisib 0.048

TUBE1 (UniProt Q9UJT0)
inactive: [1] -0.143 | filanesib 0.069 | zotarolimus -0.046 | idasanutlin 0.03 | alisertib -0.021 | [2] -0.003 | gefitinib 0.037 | [3] 0.055 | lapatinib 0.056 | pictilisib 0.045

TXN2 (UniProt Q99757)
inactive: [1] 0.039 | filanesib 0.015 | zotarolimus 0.211 | idasanutlin 0.108 | alisertib -0.19 | [2] -0.015 | gefitinib 0.042 | [3] -0.023 | lapatinib -0.078 | pictilisib -0.186

TTC7B isoform 2 (UniProt Q86TV6)
inactive: [1] 0.178 | filanesib 0.913 | zotarolimus -0.005 | idasanutlin 0.015 | [2] 0.01 | gefitinib 0.069 | lapatinib -0.093 | pictilisib 0.112

TXNDC11 (UniProt Q6PKC3)
inactive: [1] -0.086 | filanesib 0.038 | zotarolimus 0.018 | idasanutlin 0.003 | alisertib -0.012 | [2] -0.142 | [3] -0.079 | lapatinib 0.072 | pictilisib 0.04

UBE2Z (UniProt Q9H832)
inactive: [1] 0.036 | filanesib -0.072 | zotarolimus 0.014 | idasanutlin -0.049 | alisertib -0.069 | [2] 0.038 | gefitinib -0.002 | [3] 0.007 | lapatinib 0.04 | pictilisib -0.025

TWSG1 (UniProt Q9GZX9)
inactive: [1] -0.003 | filanesib -0.002 | zotarolimus 0.002 | idasanutlin -0.003 | alisertib 0.056 | [2] -0.01 | gefitinib 0.004 | [3] -0.019 | lapatinib -0.019 | pictilisib -0.021

UBA52 (UniProt P62987)
inactive: [1] 0 | filanesib 0.519 | zotarolimus -0.171 | idasanutlin 0.308 | alisertib -0.131 | [2] -0.203 | [3] -0.275 | lapatinib 0.141 | pictilisib -0.177

TUBB6 (UniProt Q9BUF5)
inactive: [1] 0 | filanesib 0.021 | zotarolimus 0.005 | idasanutlin -0.002 | alisertib -0.067 | [2] -0.004 | gefitinib 0.007 | [3] 0.075 | lapatinib 0.006 | pictilisib 0.081

TUBB (UniProt P07437)
inactive: [1] 0.041 | filanesib -0.101 | zotarolimus 0.009 | idasanutlin -0.04 | alisertib -0.02 | [2] 0.024 | gefitinib -0.03 | [3] 0.091 | lapatinib -0.046 | pictilisib 0.011

UBE3A (UniProt Q05086)
inactive: [1] 0.021 | filanesib -0.037 | zotarolimus 0.017 | idasanutlin -0.084 | alisertib -0.038 | [2] -0.012 | gefitinib 0 | [3] 0.05 | lapatinib 0.027 | pictilisib 0.011

UBAP1 isoform 4 (UniProt Q9NZ09)
inactive: [1] -0.018 | filanesib 0.078 | zotarolimus 0.045 | idasanutlin -0.014 | alisertib -0.034 | [2] -0.017 | gefitinib 0.088 | [3] -0.018 | lapatinib 0.23 | pictilisib -0.005

TUBGCP2 isoform 4 (UniProt Q9BSJ2)
inactive: [1] 0.041 | filanesib 0.172 | zotarolimus 0.148 | idasanutlin 0.078 | alisertib -0.085 | [2] -0.025 | gefitinib 0.013 | [3] -0.105 | lapatinib 0.023 | pictilisib 0.033

UBE3B (UniProt Q7Z3V4)
inactive: [1] 0.03 | filanesib 0.058 | zotarolimus 0.086 | idasanutlin 0.065 | [2] 0.247 | gefitinib -0.037 | lapatinib 0.212

TTC33 (UniProt Q6PID6)
inactive: [1] 0.094 | filanesib 0.031 | zotarolimus -0.113 | idasanutlin -0.039 | alisertib 0.071 | [2] 0.082 | [3] 0.086 | lapatinib -0.15 | pictilisib -0.093
